Data on 81 compounds can be found in PubChem BioAssay AID1347431 (National Center for Advancing Translational Sciences (NCATS), 2020).

Hit rate of the full screen: of about 1,200 compounds, fewer than 10 were called active. Calls follow the shape of the dose curve; as a rule, active = well fitted curve in the direction sought with a large enough effect; inconclusive = small, poorly fitted or top-dose-only effect, or another doubt; inactive = no such curve, though single readings can be large or run the other way. The list shows a part of the results.

The assay is described as follows: Confirmatory qHTS assay for inhibitors of Activation Induced Cytidine Deaminase (AID): UDG signals. Also: 0% is about no effect. The following applies: UDG coupled enzyme activity counter-screen; at 115 µM (top of the series) unless noted. The method, boiled down:
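UDG readout, a counterscreen: AID (1 uM, 4/3x) plus UDG (2 U/mL, 4/3x) preincubated 10 min with compound (7.32 nM - 114 uM final), then 4 h with DJC20/DJC23 substrates at room temperature; NaOH added, fluorescence read at 560/665 nm.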
(qHTS replaces the single test concentration by a dilution series.)
As to `CCc1ccc(OCC(=O)N(Cc2ccco2)Cc2ccco2)cc1`, the activity change, negative = inhibition was inactive: -2.86%.

As for `Cc1ccc(C)c(CN2CCCN(Cc3cc(C)ccc3C)S2(=O)=O)c1`, the activity change, negative = inhibition was inactive: -1.61%.

As for `CCc1ccc(NC(=O)CSc2nc(-c3ccccc3)c(C#N)c(=O)[nH]2)cc1`, the activity change, negative = inhibition is inactive: 7.28%.

In the case of `CC(C)c1ccc2c(c1)-c1ccccc1S(=O)(=O)N2CC(=O)N1CCCCC1`, the activity change, negative = inhibition was inactive: -4.79%.

Take `Cc1c(Cl)cccc1-n1ncc(C(=O)NCc2cccs2)c1C1CCN(C(=O)OC(C)(C)C)CC1`: the activity change, negative = inhibition was inactive: -10.8%.

Consider `Cc1cccc(-c2nc(CSCC(=O)NCCc3ccc(Cl)cc3)c(C)o2)c1`, for which the activity change, negative = inhibition was inactive: -5.42%.

With `COc1ccc(-n2c(-c3ccc(C)cc3)cc3c2CC(C)(C)CC3=O)c(OC)c1`, the activity change, negative = inhibition is inactive: -11%.

`CCn1cc2nc(SCc3cccc(C(F)(F)F)c3)n(Cc3ccc(Cl)cc3)c(=O)c2n1`: the activity change, negative = inhibition was inactive: -9.07%.

As for `Cc1ccc(C)c(N2CCN(C(=O)c3cnn(C(C)(C)C)c3C3CCN(C(=O)OC(C)(C)C)CC3)CC2)c1`, the activity change, negative = inhibition is inactive: -6.07%.

Consider `CCOc1cccc2sc(N3CCN(C(=O)c4ccc5c(c4)CCCC5)CC3)nc12`, for which the activity change, negative = inhibition was inactive: -12.5%.

With `CCN(CC)C(=O)c1ccc2c(c1)N(Cc1c(F)cccc1Cl)C(=O)c1ccccc1S2`, the activity change, negative = inhibition was inactive: 0.172%.

For `COc1cccc(Cc2nc3ccccc3nc2SCC(=O)N2CCCCC2C)c1` (stereo unspecified), the activity change, negative = inhibition is inactive: -2.1%.

Regarding `O=C(O)c1c(-c2ccccc2)oc2ccc(OCc3c(F)cccc3Cl)cc12`, the activity change, negative = inhibition was inactive: -5.79%.

In the case of `COc1ccc(C(=O)N2CCc3cc(OC)c(OC)cc3C2COc2ccccc2OC)cc1` (stereo unspecified), the activity change, negative = inhibition is inactive: -10.4%.

As for `CCN(CC)C(=O)CSc1nc(-c2ccc(C)cc2)nc2c1Cc1c(CO)cnc(C)c1O2`, the activity change, negative = inhibition was inactive: 4.35%.

With `Cc1ccc(CN(Cc2ccco2)C(=O)COc2ccc(C)c(C)c2)cc1`, the activity change, negative = inhibition is inactive: -3.6%.

On to `Cc1ccc(NC(=O)c2ccc3c(O)c(S(=O)(=O)c4ccccc4)c(=O)[nH]c3c2)cc1Cl`, for which the activity change, negative = inhibition is inactive: 5.47%.

`CN(C)c1ccc(Nc2ncnc3sc4c(c23)CCCC4)cc1`: the activity change, negative = inhibition is inactive: 0.0322%.

Consider `Cc1ccc2[nH]c(=O)c3cc(C(=O)NCCCN4CCC(C)CC4)sc3c2c1`, for which the activity change, negative = inhibition is inactive: -6.06%.

On to `Cc1ccc(C)c(CSc2nnc(C)n3c2cc2sccc23)c1`, for which the activity change, negative = inhibition is inactive: -4.76%.

On to `Cc1ccc(C)c(N2CCN(CCCNC(=O)c3cnn(-c4ccc(F)cc4)c3C3CCN(C(=O)OC(C)(C)C)CC3)CC2)c1`, for which the activity change, negative = inhibition was inactive: -1.84%.

`OCC1O[C@H]([S-])[C@H](O)[C@@H](O)[C@@H]1O.[Au+]` (stereo partly specified): the activity change, negative = inhibition is inactive: 3.35%.

For the compound `COc1ccccc1CNC(=O)C(C)n1c(=O)cc(-c2ccccc2)c2c(C)nn(C)c21` (stereo unspecified), the activity change, negative = inhibition was inactive: -9.61%.

Turning to `CCOC(=O)c1cccc(NC(=O)c2oc3c(c2C)-c2nn(CC)cc2CC3)c1`, the activity change, negative = inhibition is inactive: -7.26%.

In the case of `Cc1c(Cl)cccc1-n1ncc(C(=O)NC2CCCCC2)c1C1CCN(C(=O)OC(C)(C)C)CC1`, the activity change, negative = inhibition is inactive: 11.2%.

Consider `COc1ccc(OC)c(Nc2sc(C(=O)c3ccccc3)c(N)c2S(=O)(=O)c2ccccc2)c1`, for which the activity change, negative = inhibition is inactive: -9.69%.

Consider `CC(C)NC[C@H](O)c1ccc(O)c(O)c1`, for which the activity change, negative = inhibition is inactive: -5.78%.

With `Cc1cc(C)cc(C(=O)NCCc2sc(-c3ccc(F)cc3)nc2C)c1`, the activity change, negative = inhibition was inactive: -6.85%.

Consider `CCCCN(CC)CCCNC(=O)c1cn(CC)c2ccc(S(=O)(=O)N3CCc4ccccc4C3)cc2c1=O`, for which the activity change, negative = inhibition was inactive: -12.6%.

For the compound `Cc1cccc(OCCCn2c(CCNC(=O)C3CCCCC3)nc3ccccc32)c1`, the activity change, negative = inhibition is inactive: -11.7%.

Take `CS(=O)(=O)N(Cc1ccccc1)c1ccc(C(=O)Nc2ccc(Cl)cc2)cc1`: the activity change, negative = inhibition was inactive: 2.66%.

As for `Cc1cccc(Nc2nnc(-c3ccc(C)c(S(=O)(=O)N4CCN(C)CC4)c3)c3ccccc23)c1`, the activity change, negative = inhibition is inactive: -2.91%.

With `CCOC(=O)c1cnc2c(ccc3ccccc32)c1Nc1ccc(N(C)C)cc1`, the activity change, negative = inhibition is inactive: -13.6%.

Take `CCn1cc2c(n1)-c1c(oc(C(=O)Nc3ccc(Br)cc3F)c1C)CC2`: the activity change, negative = inhibition was inactive: -15.5%.

With `Cc1ccc(N(CC(=O)N2CCN(c3cc(C)ccc3C)CC2)S(=O)(=O)c2c(C)nn(C)c2C)cc1`, the activity change, negative = inhibition was inactive: -16.1%.

In the case of `Cc1ccc(N(C)C(=O)c2sc3nc4n(c(=O)c3c2C)CCCC4)cc1C`, the activity change, negative = inhibition is inactive: -1.73%.

`CCCCN(CC)C(=O)CSc1nc2n[nH]c(C)c2c(=N)n1-c1ccc(CC)cc1`: the activity change, negative = inhibition is inactive: -6.73%.

`CCOc1ccc(CNC(=O)c2oc3c(c2C)-c2nn(Cc4cccc(Cl)c4)cc2CC3)cc1`: the activity change, negative = inhibition is inactive: -11.6%.

For `O=C(c1ccc2c(c1)N(Cc1ccc(Cl)cc1)C(=O)c1ccccc1S2(=O)=O)N1CCCC1`, the activity change, negative = inhibition was inactive: -2.92%.

For the compound `COc1ccc(-c2nn3c(-c4ccccc4C)nnc3c3ccccc23)cc1`, the activity change, negative = inhibition is inactive: -9.22%.

For `CCN(CC)CCNC(=O)c1ccc2c(=O)n3nc(Nc4ccccc4OC)sc3nc2c1`, the activity change, negative = inhibition is inactive: 7.61%.

Take `COc1ccc(NC(=O)CSc2nc3nc(C)c(Cc4ccccc4)c(C)n3n2)cc1OC`: the activity change, negative = inhibition was inactive: -11.5%.

For `Cc1ccc(CN(Cc2ccco2)C(=O)c2ccc(OCC(C)C)cc2)cc1`, the activity change, negative = inhibition was inactive: 0.221%.

On to `Cc1ccccc1OCC(=O)Nc1cccc(C(=O)OCc2cc(=O)n3c(C)csc3n2)c1`, for which the activity change, negative = inhibition was inactive: 1.99%.

For `Cc1ccc(S(=O)(=O)Cc2ccc(C(=O)N3CCN(c4cccc(Cl)c4)CC3)o2)cc1`, the activity change, negative = inhibition was inactive: -15.2%.

As for `CCCn1c2ccccc2c2nnc(SCC(=O)Nc3cccc(C(C)=O)c3)nc21`, the activity change, negative = inhibition is inactive: 3.62%.

In the case of `CCOc1ccc(-c2nn(-c3ccccc3)cc2C2NC(=O)NC(C)=C2C(=O)OC(C)C)cc1` (stereo unspecified), the activity change, negative = inhibition was inactive: -7.59%.

Consider `CSc1nc(Nc2ccc(F)cc2)cc(-c2ccccc2)n1`, for which the activity change, negative = inhibition was inactive: -6.66%.

As to `Cc1ccc(CNC(=O)Nc2cc(C(=O)NCc3ccc(C(C)C)cc3)ccc2N2CCCC2)cc1`, the activity change, negative = inhibition was inactive: -1.44%.

As for `Cc1ccc2cccc(NC(=O)c3ccc(OC(C)C)cc3)c2n1`, the activity change, negative = inhibition was inactive: -2.17%.

Turning to `CCC(=O)Oc1c(Sc2ccc(Cl)cc2)c(C)nn1-c1ccccc1`, the activity change, negative = inhibition is inactive: 15.4%.

For the compound `COC(=O)c1ccc(CSc2nnc3ccc4ccccc4n23)cc1`, the activity change, negative = inhibition is inactive: 1.41%.

As to `COc1ccc2c(c1)Cc1sc(NC(=O)c3cccc(C)c3)nc1-2`, the activity change, negative = inhibition is inactive: -1.75%.

As for `CCOC(=O)CSc1nnc2n(-c3ccccc3)c(=O)c3c4c(sc3n12)CC(C(C)(C)C)CC4` (stereo unspecified), the activity change, negative = inhibition is inactive: 3.24%.

For the compound `CC(=O)NCCNc1nc2c(S(=O)(=O)c3ccc(C)c(C)c3)nnn2c2ccc(Cl)cc12`, the activity change, negative = inhibition was inactive: -4.07%.

For `Cc1ccc(C(C)C)c(OCC(=O)N2CCC(c3nc4ccccc4o3)CC2)c1`, the activity change, negative = inhibition was inactive: -1.67%.

For the compound `Cc1nn2c(=O)cc(COC(=O)c3ccc(NC(=O)C4CCCCC4)cc3)nc2s1`, the activity change, negative = inhibition was inactive: 4.13%.

For `Cc1sc2ncn(CC(=O)N3CCN(c4ccc(F)cc4)CC3)c(=O)c2c1S(=O)(=O)N1CCC(C)CC1`, the activity change, negative = inhibition was inactive: -8.24%.

Take `CCOc1ccccc1NC(=O)CN1C(=O)CC(c2ccc(OC)c(OC)c2)Sc2ccccc21` (stereo unspecified): the activity change, negative = inhibition is inactive: -2.93%.

For `CCN1C(=O)c2ccccc2S(=O)c2ccc(C(=O)N3CCN(c4cccc(C)c4)C(C)C3)cc21` (stereo unspecified), the activity change, negative = inhibition is inactive: -10.4%.

As to `CCc1ccc(CN2CCc3nc(Nc4ccccc4)ncc3C2)cc1`, the activity change, negative = inhibition is inactive: -2.24%.

For the compound `CCc1ccccc1Nc1nn2c(=O)c3ccc(C(=O)NC(C)c4ccccc4)cc3nc2s1` (stereo unspecified), the activity change, negative = inhibition was inactive: -6.22%.

Turning to `COc1ccc(-n2nc3c(N4CCCC(C(=O)NCc5ccc(C)cc5)C4)nnc(C)c3c2C)cc1` (stereo unspecified), the activity change, negative = inhibition is inactive: -3.07%.

As for `CCCNC(=O)c1cnn2c(C)c(Cc3c(C)cc(C)cc3C)c(C)nc12`, the activity change, negative = inhibition is inactive: -0.105%.

Take `CCc1nn(CCCC(=O)N2CCN(c3cc(Cl)ccc3C)CC2)c(=O)c2cc3occc3n12`: the activity change, negative = inhibition is inactive: -7.4%.

As for `CCCN1CCN(CCCNC(=O)c2cc3c(Cl)nc4ccccc4c3s2)CC1`, the activity change, negative = inhibition was inactive: 12.3%.

For `CCCCC1CCC(C(=O)N2CC(=O)Nc3ccc(F)cc3C2c2ccc(F)cc2)CC1` (stereo unspecified), the activity change, negative = inhibition is inactive: 1.26%.

For the compound `CCc1ccc(NC(=O)c2cnn(-c3c(C)cccc3C)c2C2CCN(C(=O)OC(C)(C)C)CC2)cc1`, the activity change, negative = inhibition was inactive: -11.8%.

Regarding `CN1CCN(c2nc3c(S(=O)(=O)c4ccc(Cl)cc4)nnn3c3ccsc23)CC1`, the activity change, negative = inhibition was inactive: -6.47%.

Consider `Cc1cc2oc(=O)c(CC(=O)O)c(C)c2c2occ(-c3ccccc3)c12`, for which the activity change, negative = inhibition was inactive: 2.29%.

Consider `Cc1nn2c(C)c(C(=O)NCCc3ccccc3)cnc2c1-c1ccccc1`, for which the activity change, negative = inhibition was inactive: -20.1%.

For `COc1cc(C(c2c(C)[nH][nH]c2=O)c2c(C)[nH][nH]c2=O)ccc1OC(=O)c1ccccc1OC`, the activity change, negative = inhibition was inactive: -5.55%.

For `CC(C)(C)OC(=O)N1CCC(c2c(C(=O)N3CCN(Cc4ccccc4)CC3)cnn2-c2cccc(Cl)c2)CC1`, the activity change, negative = inhibition is inactive: -11.8%.

Turning to `COc1ccc(-c2nc(Cn3c(SCc4ccccc4F)nc4cccnc43)c(C)o2)cc1`, the activity change, negative = inhibition is inactive: -15%.

As to `CCn1cc(S(=O)(=O)c2ccc(Cl)cc2)c(=O)c2cc(F)c(N3CCOCC3)cc21`, the activity change, negative = inhibition is inactive: 8.08%.

Take `COc1ccc(NC(=O)CSc2nc3nc(C)c(Cc4ccc(C)cc4)c(C)n3n2)cc1OC`: the activity change, negative = inhibition is inactive: -9.19%.

For the compound `CCc1ccc(OCCCSc2nc(-c3ccc(C(C)(C)C)cc3)nc3cc(=O)[nH]n23)cc1`, the activity change, negative = inhibition was inactive: -5.76%.

With `Cc1ccc(-c2cn3c(n2)sc2cc(C(=O)NCCCN4CCCCC4)ccc23)cc1`, the activity change, negative = inhibition is inactive: -2.1%.

Consider `CC(C)Cc1ccc(S(=O)(=O)N2CCC(c3ccncc3)CC2)cc1`, for which the activity change, negative = inhibition was inactive: -3.44%.

For the compound `CCCN(Cc1cccs1)C(=O)Nc1cc(Cl)ccc1C`, the activity change, negative = inhibition was inactive: -4.21%.

Consider `COc1cc2c(=O)c(C(=O)c3ccc(C)c(C)c3)cn(Cc3ccccc3F)c2cc1OC`, for which the activity change, negative = inhibition was inactive: -2.14%.
